No constants are given. Whether binding was seen depends on the method and setting. In cells and extracts the contact can be indirect. Some results given as binding are weak or reduced against the parent protein; the word gives no strength.
Legend:
[1] = molecular target: 3xFlag-tagged LRRK2 WT (leucine-rich repeat kinase 2) (UniProt Q5S007); experiment: co-IP; HEK293T co-transfected, harvested 48 h post-transfection; lysis buffer 50 mM Tris pH 7.5, 1% Triton X-100; anti-Flag M2 affinity gel overnight; washes with 0.25 M NaCl; Flag and GFP immunoblotting; cells also treated with GSK2578215A (2 uM, 90 min), forskolin (30 uM, 90 min) or DMSO
[2] = molecular target: 3xFlag-tagged LRRK2 G2019S (UniProt Q5S007); experiment: as above
GFP-tagged LRRK2 WT = GFP-tagged LRRK2 WT (UniProt Q5S007); experiment: pull-down; GFP-tagged protein purified on GFP-trap resin, incubated 2 h with BV2 lysates containing endogenous prey; washes with 0.25 M NaCl; GFP and PKA RIIβ immunoblotting; BV2 cells also treated beforehand with GSK2578215A or DMSO; only the target purified

Sequences of proteins named here, by UniProt entry; tags and fusion partners are left off. A change or cut given only in a name is not applied to a line headed by its entry.
UniProt Q5S007: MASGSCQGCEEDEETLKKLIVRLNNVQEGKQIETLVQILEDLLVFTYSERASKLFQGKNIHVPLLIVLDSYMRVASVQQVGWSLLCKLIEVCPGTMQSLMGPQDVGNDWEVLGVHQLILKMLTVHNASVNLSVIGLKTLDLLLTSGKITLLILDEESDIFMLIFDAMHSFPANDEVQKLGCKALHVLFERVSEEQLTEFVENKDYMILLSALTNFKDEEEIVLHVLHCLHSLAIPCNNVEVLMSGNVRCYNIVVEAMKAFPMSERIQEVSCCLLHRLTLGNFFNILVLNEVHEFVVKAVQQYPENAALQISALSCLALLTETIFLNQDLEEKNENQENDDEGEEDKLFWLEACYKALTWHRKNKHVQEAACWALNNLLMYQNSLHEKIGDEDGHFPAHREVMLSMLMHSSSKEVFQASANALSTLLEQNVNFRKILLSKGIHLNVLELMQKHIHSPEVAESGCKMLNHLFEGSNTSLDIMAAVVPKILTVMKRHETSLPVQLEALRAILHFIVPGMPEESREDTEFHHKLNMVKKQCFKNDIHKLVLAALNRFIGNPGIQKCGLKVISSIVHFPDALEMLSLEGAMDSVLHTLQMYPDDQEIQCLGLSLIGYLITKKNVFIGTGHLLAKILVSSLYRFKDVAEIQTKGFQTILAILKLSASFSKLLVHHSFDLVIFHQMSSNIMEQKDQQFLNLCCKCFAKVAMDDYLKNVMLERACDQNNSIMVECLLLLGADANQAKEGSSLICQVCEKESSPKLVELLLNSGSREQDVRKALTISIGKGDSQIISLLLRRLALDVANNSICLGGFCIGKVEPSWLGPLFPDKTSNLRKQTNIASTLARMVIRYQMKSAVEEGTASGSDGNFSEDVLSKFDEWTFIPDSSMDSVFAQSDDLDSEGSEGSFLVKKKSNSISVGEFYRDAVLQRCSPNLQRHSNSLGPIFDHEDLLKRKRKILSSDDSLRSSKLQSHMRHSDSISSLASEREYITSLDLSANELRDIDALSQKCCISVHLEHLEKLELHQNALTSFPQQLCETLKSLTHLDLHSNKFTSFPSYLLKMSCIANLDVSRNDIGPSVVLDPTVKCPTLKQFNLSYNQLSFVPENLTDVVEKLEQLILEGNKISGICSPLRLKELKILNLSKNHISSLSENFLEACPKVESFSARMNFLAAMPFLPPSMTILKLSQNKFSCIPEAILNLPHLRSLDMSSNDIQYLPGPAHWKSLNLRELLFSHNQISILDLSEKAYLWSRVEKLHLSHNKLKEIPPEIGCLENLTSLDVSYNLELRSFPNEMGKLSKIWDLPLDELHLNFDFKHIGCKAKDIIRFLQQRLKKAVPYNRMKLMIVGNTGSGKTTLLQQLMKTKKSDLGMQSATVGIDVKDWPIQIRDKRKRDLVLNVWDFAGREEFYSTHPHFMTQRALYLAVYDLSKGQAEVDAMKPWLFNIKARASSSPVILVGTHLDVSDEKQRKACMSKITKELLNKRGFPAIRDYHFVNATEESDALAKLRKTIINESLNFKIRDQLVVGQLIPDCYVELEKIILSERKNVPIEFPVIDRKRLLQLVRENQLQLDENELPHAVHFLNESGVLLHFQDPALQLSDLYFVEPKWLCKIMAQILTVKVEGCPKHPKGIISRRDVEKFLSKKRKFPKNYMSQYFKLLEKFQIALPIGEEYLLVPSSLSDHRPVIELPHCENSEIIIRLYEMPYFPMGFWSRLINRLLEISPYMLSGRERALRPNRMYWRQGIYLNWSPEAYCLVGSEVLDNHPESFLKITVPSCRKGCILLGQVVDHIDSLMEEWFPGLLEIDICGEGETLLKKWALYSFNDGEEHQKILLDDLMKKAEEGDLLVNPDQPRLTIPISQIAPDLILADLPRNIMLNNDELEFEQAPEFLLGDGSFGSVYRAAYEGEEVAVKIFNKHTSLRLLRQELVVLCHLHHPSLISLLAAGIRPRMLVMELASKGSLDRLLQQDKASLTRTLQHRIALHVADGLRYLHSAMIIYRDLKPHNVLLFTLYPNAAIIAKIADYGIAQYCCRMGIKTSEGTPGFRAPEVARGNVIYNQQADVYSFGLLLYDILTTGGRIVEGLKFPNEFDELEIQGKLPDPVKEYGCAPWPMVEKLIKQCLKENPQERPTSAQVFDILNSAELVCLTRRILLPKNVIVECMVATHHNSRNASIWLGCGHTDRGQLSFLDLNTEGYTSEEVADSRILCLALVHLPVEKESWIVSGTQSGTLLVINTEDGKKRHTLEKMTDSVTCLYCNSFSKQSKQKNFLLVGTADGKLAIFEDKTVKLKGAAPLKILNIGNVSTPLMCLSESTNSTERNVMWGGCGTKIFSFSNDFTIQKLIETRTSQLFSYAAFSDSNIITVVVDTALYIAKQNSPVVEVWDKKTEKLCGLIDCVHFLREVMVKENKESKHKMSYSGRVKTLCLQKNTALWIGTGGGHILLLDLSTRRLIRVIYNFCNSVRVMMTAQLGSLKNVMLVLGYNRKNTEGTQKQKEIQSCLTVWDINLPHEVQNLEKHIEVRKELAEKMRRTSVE
UniProt P31323: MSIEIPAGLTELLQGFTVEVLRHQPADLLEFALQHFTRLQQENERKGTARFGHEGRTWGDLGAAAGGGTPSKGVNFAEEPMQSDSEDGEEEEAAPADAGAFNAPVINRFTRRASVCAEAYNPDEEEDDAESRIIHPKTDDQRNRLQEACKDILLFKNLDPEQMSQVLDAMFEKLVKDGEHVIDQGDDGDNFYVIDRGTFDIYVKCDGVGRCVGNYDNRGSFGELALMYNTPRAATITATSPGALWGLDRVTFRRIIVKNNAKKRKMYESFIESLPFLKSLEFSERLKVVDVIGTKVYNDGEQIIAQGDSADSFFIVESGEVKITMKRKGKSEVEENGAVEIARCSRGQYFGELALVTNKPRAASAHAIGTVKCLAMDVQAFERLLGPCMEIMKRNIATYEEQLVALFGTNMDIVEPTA
UniProt P31324: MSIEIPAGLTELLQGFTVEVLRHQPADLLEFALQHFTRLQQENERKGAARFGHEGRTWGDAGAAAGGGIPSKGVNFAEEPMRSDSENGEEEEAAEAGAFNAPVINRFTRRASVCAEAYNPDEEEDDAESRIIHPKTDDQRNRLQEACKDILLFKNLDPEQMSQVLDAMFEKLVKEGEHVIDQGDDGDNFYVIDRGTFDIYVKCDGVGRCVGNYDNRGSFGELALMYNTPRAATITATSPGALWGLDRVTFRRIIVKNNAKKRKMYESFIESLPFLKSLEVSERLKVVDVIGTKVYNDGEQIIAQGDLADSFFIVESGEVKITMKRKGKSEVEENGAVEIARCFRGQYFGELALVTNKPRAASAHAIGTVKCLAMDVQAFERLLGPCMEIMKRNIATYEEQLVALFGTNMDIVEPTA

Substance	binding [1]	binding [2]	binding (GFP-tagged LRRK2 WT)
GFP-tagged PKA RIIβ (protein kinase A regulatory IIβ subunit) (from UniProt P31323 1-418)	binds	binds	–
endogenous PKA RIIβ subunit of BV2 microglia cells (from UniProt P31324 1-416)	–	–	binds
